Further values from the same series stand in other lists.
Assay: Assay (I): Determination of Solubility (96-well plate, pH 3.0-11.0, organic solvent 0-70% w/w, UV absorption at 280 nm)
Format: physicochemical
Conditions: Method 1
Procedure: Assay (I): Determination of Solubility
96-Well Plate Preparation
96-well plates containing target peptide in a solid form were prepared in one of two ways:
Method 1 (evaporation): Addition of 100 μl stock solution of said peptide at a concentration of 4-6 mg/ml to each well of a 96-well half area plate (150 μl well size). Subsequently the solvent was evaporated by applying a vacuum until the solvent was completely removed.
Method 2 (precipitation): Addition of a certain volume of a stock solution of said peptide containing to each well of a 96-well half area plate followed by the addition of a certain volume of concentrated phosphoric acid to obtain a pH of 4.6 followed by addition of a certain volume of ethanol resulting in a final ethanol concentration of 20% v/v. Subsequently the plate was stored at 4° C. for 1 h and then centrifuged at 4,000 rpm for 20 min. Finally the supernatant was removed. The concentration of the stock solution was chosen in a way that the final amount of peptide after supernatant removal was >0.4 mg per well.
In both cases the stock solution was prepared by adding de-ionized water to a certain amount of powder of said peptide followed by a stepwise addition of small amounts of a concentrated sodium hydroxide solution until said peptide was completely in solution.
To determine solubility of a target peptide at different pH and organic solvent concentrations, two different buffer systems were used in independent experiments to cover the whole range from pH 3.0 to pH 11.0. Buffer system 1 covers pH 3.0-7.5 and buffer system 2 covers pH 7.5-11.0. For each buffer system 96 different solvent compositions were premixed in the following way: • 1. A low pH buffer (adjusted to either pH 3.0 or pH 7.5) and a high pH buffer (adjusted to either pH 7.5 or pH 11.0) were mixed at 8 different ratios to obtain values between pH 3.0 and pH 7.5 or pH 7.5 and pH 11.0, respectively. The total volume after mixing was 300 μl. • 2. 12 different amounts of organic solvent were then added to these buffers to obtain organic solvent (e.g. ethanol) concentrations between 0 and 70% w/w. • 3. Water was then added to obtain a total weight of 1.0 g of solvent in each well.
After preparing the 96 different solvent systems, 100 μl of each system was transferred to the 96-well plate containing the solid form of the target peptide (prepared as described in the section “96-well plate preparation”). The plate was then stored at a given temperature (between 5° C. and 70° C.) for a given time on a rotating shaker set to 400 rpm. At regular time intervals the plate was centrifuged (4,000 rpm for 10 min) and a 10 μl sample was taken from each well. The samples were then analysed by UV absorption at 280 nm for peptide quantification. Peptide concentration results are given as UV absorption at 280 nm of the sample subtracted UV absorption at 280 nm of a well comprising 10 μl water.
The buffers used were as follows: • Buffer system 1 (for the pH range from pH 3.0-7.5)
• Buffer system 2 (for the pH ranae from pH 7.5-11.0)
Solubility of liraglutide was determined using Assay (I) described herein. Liraglutide was prepared using Method 1 (evaporation) or Method 2 (precipitation) as described in subsection “96-well plate preparation”.

[1] = MeCN 19.1% w/w, pH 10.0, 70° C.
[2] = MeCN 19.1% w/w, pH 10.5, 70° C.
[3] = MeCN 19.1% w/w, pH 11.0, 70° C.

- Peptide concentration after 5 min (MeCN 19.1% w/w, pH 6.9, 70° C.): >4.0 mg/mL
- Peptide concentration after 180 min (MeCN 19.1% w/w, pH 6.9, 70° C.): >4.0 mg/mL
- Peptide concentration after 5 min (MeCN 19.1% w/w, pH 6.9, RT): 1.2 mg/mL
- Peptide concentration after 180 min (MeCN 19.1% w/w, pH 6.9, RT): >4.0 mg/mL
- Peptide concentration after 24 h (MeCN 19.1% w/w, pH 6.9, RT): >4.0 mg/mL
- Peptide concentration after 5 min (MeCN 19.1% w/w, pH 7.5, 5° C.): 1.4 mg/mL
- Peptide concentration after 180 min (MeCN 19.1% w/w, pH 7.5, 5° C.): 2.9 mg/mL
- Peptide concentration after 24 h (MeCN 19.1% w/w, pH 7.5, 5° C.): >4.0 mg/mL
- Peptide concentration after 5 min (MeCN 19.1% w/w, pH 7.5, 70° C.): >4.0 mg/mL
- Peptide concentration after 180 min (MeCN 19.1% w/w, pH 7.5, 70° C.): >4.0 mg/mL
- Peptide concentration after 5 min (MeCN 19.1% w/w, pH 7.5, RT): 1.6 mg/mL
- Peptide concentration after 180 min (MeCN 19.1% w/w, pH 7.5, RT): >4.0 mg/mL
- Peptide concentration after 24 h (MeCN 19.1% w/w, pH 7.5, RT): >4.0 mg/mL
- Peptide concentration after 5 min (MeCN 19.1% w/w, pH 8.0, 70° C.): >4.0 mg/mL
- Peptide concentration after 180 min (MeCN 19.1% w/w, pH 8.0, 70° C.): >4.0 mg/mL
- Peptide concentration after 5 min (MeCN 19.1% w/w, pH 8.0, RT): 1.6 mg/mL
- Peptide concentration after 180 min (MeCN 19.1% w/w, pH 8.0, RT): 3.9 mg/mL
- Peptide concentration after 24 h (MeCN 19.1% w/w, pH 8.0, RT): >4.0 mg/mL
- Peptide concentration after 5 min (MeCN 19.1% w/w, pH 8.5, 70° C.): >4.0 mg/mL
- Peptide concentration after 180 min (MeCN 19.1% w/w, pH 8.5, 70° C.): >4.0 mg/mL
- Peptide concentration after 5 min (MeCN 19.1% w/w, pH 8.5, RT): 1.2 mg/mL
- Peptide concentration after 180 min (MeCN 19.1% w/w, pH 8.5, RT): 3.7 mg/mL
- Peptide concentration after 24 h (MeCN 19.1% w/w, pH 8.5, RT): >4.0 mg/mL
- Peptide concentration after 5 min (MeCN 19.1% w/w, pH 9.0, 70° C.): >4.0 mg/mL
- Peptide concentration after 180 min (MeCN 19.1% w/w, pH 9.0, 70° C.): >4.0 mg/mL
- Peptide concentration after 5 min (MeCN 19.1% w/w, pH 9.0, RT): 1.0 mg/mL
- Peptide concentration after 180 min (MeCN 19.1% w/w, pH 9.0, RT): 3.7 mg/mL
- Peptide concentration after 24 h (MeCN 19.1% w/w, pH 9.0, RT): >4.0 mg/mL
- Peptide concentration after 5 min (MeCN 19.1% w/w, pH 9.5, 70° C.): >4.0 mg/mL
- Peptide concentration after 180 min (MeCN 19.1% w/w, pH 9.5, 70° C.): >4.0 mg/mL
- Peptide concentration after 5 min (MeCN 19.1% w/w, pH 9.5, RT): 1.7 mg/mL
- Peptide concentration after 180 min (MeCN 19.1% w/w, pH 9.5, RT): >4.0 mg/mL
- Peptide concentration after 24 h (MeCN 19.1% w/w, pH 9.5, RT): >4.0 mg/mL
- Peptide concentration after 5 min [1]: >4.0 mg/mL
- Peptide concentration after 180 min [1]: >4.0 mg/mL
- Peptide concentration after 5 min (MeCN 19.1% w/w, pH 10.0, RT): 1.3 mg/mL
- Peptide concentration after 180 min (MeCN 19.1% w/w, pH 10.0, RT): >4.0 mg/mL
- Peptide concentration after 24 h (MeCN 19.1% w/w, pH 10.0, RT): >4.0 mg/mL
- Peptide concentration after 5 min [2]: >4.0 mg/mL
- Peptide concentration after 180 min [2]: >4.0 mg/mL
- Peptide concentration after 5 min (MeCN 19.1% w/w, pH 10.5, RT): 1.6 mg/mL
- Peptide concentration after 180 min (MeCN 19.1% w/w, pH 10.5, RT): >4.0 mg/mL
- Peptide concentration after 24 h (MeCN 19.1% w/w, pH 10.5, RT): >4.0 mg/mL
- Peptide concentration after 5 min [3]: 3.8 mg/mL
- Peptide concentration after 180 min [3]: >4.0 mg/mL
- Peptide concentration after 5 min (MeCN 19.1% w/w, pH 11.0, RT): 1.3 mg/mL
- Peptide concentration after 180 min (MeCN 19.1% w/w, pH 11.0, RT): 3.6 mg/mL
- Peptide concentration after 24 h (MeCN 19.1% w/w, pH 11.0, RT): >4.0 mg/mL
- Peptide concentration after 5 min (MeCN 25.5% w/w, pH 3.0, 5° C.): 0.4 mg/mL
- Peptide concentration after 180 min (MeCN 25.5% w/w, pH 3.0, 5° C.): 0.7 mg/mL
SMILES: CCCCCCCCCCCCCCCC(=O)N[C@@H](CCC(=O)NCCCC[C@H](NC(=O)[C@H](C)NC(=O)[C@H](C)NC(=O)[C@H](CCC(N)=O)NC(=O)CNC(=O)[C@H](CCC(=O)O)NC(=O)[C@H](CC(C)C)NC(=O)[C@H](Cc1ccc(O)cc1)NC(=O)[C@H](CO)NC(=O)[C@H](CO)NC(=O)[C@@H](NC(=O)[C@H](CC(=O)O)NC(=O)[C@H](CO)NC(=O)[C@@H](NC(=O)[C@H](Cc1ccccc1)NC(=O)[C@@H](NC(=O)CNC(=O)[C@H](CCC(=O)O)NC(=O)[C@H](C)NC(=O)[C@@H](N)Cc1cnc[nH]1)[C@@H](C)O)[C@@H](C)O)C(C)C)C(=O)N[C@@H](CCC(=O)O)C(=O)N[C@@H](Cc1ccccc1)C(=O)N[C@H](C(=O)N[C@@H](C)C(=O)N[C@@H](Cc1c[nH]c2ccccc12)C(=O)N[C@@H](CC(C)C)C(=O)N[C@H](C(=O)N[C@@H](CCCNC(=N)N)C(=O)NCC(=O)N[C@@H](CCCNC(=N)N)C(=O)NCC(=O)O)C(C)C)[C@@H](C)CC)C(=O)O [liraglutide, Arg34,Lys26-(N-epsilon-(gamma-L-glutamyl(N-alfa-hexadecanoyl)))-GLP-1(7-37)]

Source: US20210261642A1, “SOLUBILITY OF GLP-1 PEPTIDE” (Novo Nordisk A/S, priority 2017, published 2021)
